The values below come from article PMC5500890.

These are yes or no findings as the source states them, for the method shown.

In this test the target is Escherichia coli apolipoprotein N-acyl transferase (Lnt) (E. coli K-12) (UniProt P23930). Nature of the test: crystal structure; apo Ec-Lnt crystallized in the presence of 0.3% (w/v) NTM, hanging drop, 16 °C; refined at 2.6 Å; both purified.

In the case of “Escherichia coli apolipoprotein N-acyl transferase (Lnt) (from UniProt P23930 1-512) (enzyme)”, the binding entry is on record as “no binding”.
